The values below are quoted from earlier work in patent publication US10500225B2, “Injectable composition; method for preparing said composition; use of said composition” (KH MEDTECH SARL, priority 2015, dated 2019).

Structures are written as SMILES. Where a name gives a salt, the structure may show the parent alone.

For this data set the following is noted: Example 4 of WO 2010/015900.

Take `CCN(CC)CC(=O)Nc1c(C)cccc1C` [lidocaine hydrochloride]: the “Time to almost total release from cross-linked hyaluronic acid-based gel” value was at most 24 h.
